Experimental data published in the supplement of paper PMC3334620.
The full ranking holds about 33,000 sequences; the median of “E-score (-0.5 to 0.5)” is about -0.016, and the highest 2% start at about 0.3. The list shows a part of the results.

Target: T1, Yer184c (UniProt P39961)
T1 sequence: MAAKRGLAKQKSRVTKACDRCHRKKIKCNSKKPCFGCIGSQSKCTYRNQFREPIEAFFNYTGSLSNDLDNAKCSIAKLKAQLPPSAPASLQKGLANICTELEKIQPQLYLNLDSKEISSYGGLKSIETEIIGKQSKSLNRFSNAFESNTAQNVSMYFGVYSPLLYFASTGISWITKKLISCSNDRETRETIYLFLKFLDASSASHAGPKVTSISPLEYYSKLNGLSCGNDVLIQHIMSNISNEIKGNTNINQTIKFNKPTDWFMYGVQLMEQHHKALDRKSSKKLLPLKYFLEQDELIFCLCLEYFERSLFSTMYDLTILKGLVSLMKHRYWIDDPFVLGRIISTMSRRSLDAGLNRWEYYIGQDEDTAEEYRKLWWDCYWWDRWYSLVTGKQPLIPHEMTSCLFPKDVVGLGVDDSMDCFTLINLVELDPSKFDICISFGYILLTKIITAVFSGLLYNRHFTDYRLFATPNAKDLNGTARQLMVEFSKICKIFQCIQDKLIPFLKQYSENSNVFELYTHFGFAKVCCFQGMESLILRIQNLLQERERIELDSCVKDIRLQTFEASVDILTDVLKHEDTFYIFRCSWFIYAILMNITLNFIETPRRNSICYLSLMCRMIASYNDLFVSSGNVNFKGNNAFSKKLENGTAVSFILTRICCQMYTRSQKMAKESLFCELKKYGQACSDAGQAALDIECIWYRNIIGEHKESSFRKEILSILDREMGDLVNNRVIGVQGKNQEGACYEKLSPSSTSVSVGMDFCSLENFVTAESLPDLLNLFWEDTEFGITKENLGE
Experiment: PBM E-score (8-mer binding enrichment) (E-score (-0.5 to 0.5)); higher = stronger / more preferred TF binding
Settings: protein concentration: 100 nM; construct: GST-full length
In short: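 Universal all-10-mer Agilent arrays, fresh or stripped once, were converted to double-stranded form by primer extension. GST-tagged yeast transcription factors from PURExpress in vitro transcription/translation, full-length or DNA-binding domain only, were applied at about 100-200 nM and detected with fluorescent anti-GST. After masliner normalisation, the Universal PBM Analysis Suite scored each ungapped eight-base word together with its reverse complement by E-score.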

Sequence | PBM E-score
CGAGGAAC | 0.184
ACTATTAA | 0.141
AGAAATGC | 0.0544
AAGCAGCA | -0.196
ATTAGTCA | 0.162
CAAAACAA | -0.0896
GACATTCC | -0.0605
AGGCGCTA | -0.0158
CACTCATG | -0.142
CTTGCACC | 0.0155
ACGCACAG | -0.0839
CCGCCCAC | -0.0179
CACCGTTA | -0.0428
AGGCTAAA | -0.0661
CCGGCAAG | 0.331
GTCTATGA | 0.00499
AAATATTG | 0.208
AATGATTA | 0.218
AAGGATCC | -0.0186
GGCGACAC | 0.129
CGTCTCGA | 0.0829
AGTTCATC | 0.0688
AAGGATGT | -0.183
GGCGGGTA | -0.103
AACTATAC | 0.0454

Sequence | PBM E-score
AACGTTAC | 0.074
GAAGATCA | -0.00997
GCGATGCA | -0.248
CGAACAGA | 0.209
GTCGCGAA | 0.00034
ACCGACAT | 0.154
ACCAAACC | -0.034
TATCCGAA | 0.386
GAGAGCCA | -0.0998
CCGGGTTC | 0.356
AAGATCAC | -0.0399
CCAGGCTC | -0.118
GCCAGGTA | -0.144
AAGGGCTA | -0.166
CGAGGATC | 0.0927
GGGTGACC | -0.0707
CCTGGGAG | -0.237
AAAAAACT | -0.121
ATGTCTAC | -0.103
GATACATC | -0.0575
ATGTTGGA | 0.131
GCTTTCCA | 0.00811
GGTTTTCA | 0.0617
AAGATGCC | 0.0181
CTCCAAAG | -0.0443

Sequence | PBM E-score
AGGGGAAC | -0.271
ACTTTAGC | -0.00575
CATAAACC | 0.0467
CCTACTCG | -0.0284
AGGTATGG | -0.337
GACCTAGA | -0.136
CGCGTTAC | -0.108
CATAACGG | -0.0464
TTCTAAAA | 0.235
GTTAAAAC | 0.209
ATAATGCC | 0.0664
TACTCTGA | -0.171
CATTTCCC | 0.122
CGTCCTAA | -0.178
GCGTGCAC | -0.0535
AACACTAA | 0.101
AACAACTG | 0.103
GATAAGGA | 0.209
GGAAATGA | 0.188
AATCACGT | 0.0406
CGCTAGCA | -0.141
GCACGAAC | 0.0972
CCATCTAA | -0.0599
GGAATCAC | 0.121
AGAGCACG | -0.0154

Sequence | PBM E-score
AGGCCGAG | 0.143
TGGCTGAA | -0.121
ATGTCGGG | -0.0686
CAGATCGA | -0.0498
CCCCCACG | -0.335
GTCATGCA | -0.0558
ACATCGGA | 0.223
AGCCTGTG | -0.199
ATCTCTAC | -0.101
GACTTTAA | 0.105
CACTGCCG | 0.258
AAATTAAG | 0.119
CTATAACC | -0.148
CCATGCGG | -0.135
AGTTATTA | 0.0498
CTTCCTGC | -0.314
CAGTGCTA | -0.109
AGGATTTC | 0.00676
ACGGGTCT | -0.324
CCTGTCAG | -0.101
AAGTAGCA | -0.0482
ACTGCGCC | -0.21
ATGGAACC | 0.0146
ATAACAAA | 0.357
ACCTTGTG | -0.12

Sequence | PBM E-score
ACAACTTA | -0.0569
AGACAGGG | -0.249
GTCCGTTA | 0.207
AAAATACA | 0.0898
CGAATAGC | -0.0213
GAAGGGCA | -0.0539
CAGTCACC | -0.251
ACGGCCCA | -0.0167
CAGTCTAG | -0.132
AGTTTCCG | 0.392
ATTGGGCA | -0.248
CTAGGTCA | -0.144
ATCGCTGG | -0.0399
ACGTAGAA | -0.0314
TGAATCAA | 0.273
ATCATCTC | 0.11
GTTCAACA | 0.17
AAACACCA | -0.0681
CACTGCAA | 0.0304
TAAGGTCA | -0.171
AATCGGCG | 0.226
CCATAAGG | -0.264
ACGTCGCT | -0.239
GGTTCCAC | -0.116
CGCCCGGA | 0.264

Sequence | PBM E-score
GTATAGGA | -0.21
GCCCCAGC | -0.26
AAGTTCCC | -0.0932
AGGACTTG | -0.151
GCGAAGGA | -0.111
ATTCCACA | 0.202
AAAGTCTA | 0.0242
GAGAACAA | 0.175
ACTGACGC | -0.217
TGCTGCCA | -0.159
CCCATCAA | -0.00527
CACCTTCC | -0.0129
GGATCCTA | -0.0163
AGCTTTAT | 0.0275
CTCGCGGA | 0.0472
CCATCCAG | -0.103
GACATTGA | 0.0743
AAATAGCA | -0.047
ATTTCCAA | 0.102
CACTAGAC | -0.109
AGCTCACA | -0.113
ACTGCTAA | -0.139
ATAGTGCA | 0.104
ACGAGCGT | -0.166
CGTCTGGA | -0.12

Not a retest: entries from further up.
Sequence | PBM E-score
ATGGAACC | 0.0146
ATAACAAA | 0.357
ACCTTGTG | -0.12
ACAACTTA | -0.0569
AGACAGGG | -0.249
GTCCGTTA | 0.207
AAAATACA | 0.0898
CGAATAGC | -0.0213
GAAGGGCA | -0.0539
CAGTCACC | -0.251
ACGGCCCA | -0.0167
CAGTCTAG | -0.132
AGTTTCCG | 0.392
ATTGGGCA | -0.248
CTAGGTCA | -0.144
ATCGCTGG | -0.0399
ACGTAGAA | -0.0314
TGAATCAA | 0.273
ATCATCTC | 0.11
GTTCAACA | 0.17
AAACACCA | -0.0681
CACTGCAA | 0.0304
TAAGGTCA | -0.171
AATCGGCG | 0.226
CCATAAGG | -0.264
ACGTCGCT | -0.239
GGTTCCAC | -0.116
CGCCCGGA | 0.264
GTATAGGA | -0.21
GCCCCAGC | -0.26
AAGTTCCC | -0.0932
AGGACTTG | -0.151
GCGAAGGA | -0.111
ATTCCACA | 0.202
AAAGTCTA | 0.0242
GAGAACAA | 0.175
ACTGACGC | -0.217
TGCTGCCA | -0.159
CCCATCAA | -0.00527
CACCTTCC | -0.0129
GGATCCTA | -0.0163
AGCTTTAT | 0.0275
CTCGCGGA | 0.0472
CCATCCAG | -0.103
GACATTGA | 0.0743
AAATAGCA | -0.047
ATTTCCAA | 0.102
CACTAGAC | -0.109
AGCTCACA | -0.113
ACTGCTAA | -0.139
ATAGTGCA | 0.104

The list goes on.

Sequence | PBM E-score
AGCCATGC | -0.176
AGATGGGG | -0.328
AACTTAGA | 0.106
ACACACAA | 0.122
CGAGCGCC | -0.0295
CGAGGACC | -0.0009
AGCTGAGG | -0.11
CCGGTTCG | 0.193
ACCCCTAA | -0.194
ACAAAGGT | 0.0426
ACAAACGT | -0.126
CCAACCGA | 0.155
AGGCCCCA | -0.281
GATGCAGA | -0.139
CTAACGAG | -0.0222
CCTGAACG | 0.0764
GCATATAA | 0.204
CTCGCTCA | 0.162
ATCGGATA | 0.369
CTGCCTTA | -0.244
CACATTGC | -0.0846
CTGGCGCC | -0.00359
